The values below come from PubChem BioAssay AID662 (National Center for Advancing Translational Sciences (NCATS), 2007).

The other results are listed elsewhere or left out. The main result of the screen is listed elsewhere. These columns were measured beside it and carry no call. Compounds called inactive in the main read-out are mostly missing here. Words in brackets tell the shape of the fitted curve; partial curves, single points and poor fits give uncertain potencies.

This assay in a line: Cell signaling CRE-BLA (Fsk stim). Conditions: CHO CRE-bla reporter (cAMP response element driving beta-lactamase), forskolin EC10, beta-lactamase ratio; measured here: 460 nm blue channel. In short, it runs like this:
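CRE-bla CHO cells stimulated with EC10 NKH 477 (water-soluble forskolin) and compound titrations, 3 h at 37C; beta-lactamase read with CCF4 after 2 h at room temperature. Activity from 460/530 nm emission ratio, AC50 values for positive or negative modulation.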
For `C=CCSc1nc2c(c(=O)[nH]1)C(C(C)C)C(C#N)=C(N)O2` (configuration not stated), the AC50 is 12.6 µM [rising, single point]. The same measure for `Oc1oc(-c2ccco2)nc1C=Nc1ccccc1`: 20 µM [falling, single point].

Turning to `CCOC(=O)c1[nH]nc2c1C(=O)N(Cc1ccccc1)C2=O`, the AC50 is 20 µM [falling, partial curve, poor fit]. Regarding `CN(C)c1ccc(-c2cc(NCc3cccnc3)ncn2)cc1`, the AC50 is 10 µM [rising, partial curve]. Then `O=C(c1ccc(Cl)cc1)C1C2C(=O)N(c3ccccc3)C(=O)C2C2CCCN21` (configuration not stated), with 3.16 µM [falling, full curve]; and `COc1ccc(Cl)cc1NC(=O)c1cnc2sccn2c1=O`, with 15.8 µM [rising, single point].

Take `Cc1ccccc1OCc1nc(-c2ccc(NC(=O)c3ccc4c(c3)OCO4)cc2)no1`: the AC50 is 25.1 µM [falling, single point].

As for `N#Cc1cnc(SCCc2ccccc2)nc1N`, the AC50 is 12.6 µM [rising, single point]. With `CC(C)n1c(SCC(=O)N2CCCC2)nc2c1c(=O)n(C)c(=O)n2C`, the half-maximal activity concentration (AC50) was 12.6 µM [rising, partial curve].

For `CCOC(=O)C1CCN(C(=O)C2(NC(=O)Nc3ccccc3Cl)CCCCC2)CC1`, the AC50 was 0.00794 µM [falling, partial curve, poor fit]. Then `O=[N+]([O-])c1ccc(S(=O)(=O)Cc2ccccc2)c([N+](=O)[O-])c1`, with 2.51 µM [falling, partial curve].

For the molecule `Cc1cccn2c(=O)c3cc(C(=O)N4CCc5ccccc5C4)n(C)c3nc12`, the AC50 was 0.398 µM [rising, partial curve]. The same measure for `COc1cccc(C2=NOC(C(=O)NC(C)(C)C)C2)c1` (configuration not stated): 2.51 µM [falling, partial curve, poor fit]; for `Cc1cccc(NC(=O)CSC(N)=O)c1C`: 15.8 µM [falling, single point]; for `COc1ccc(CCNS(=O)(=O)c2cccc(S(=O)(=O)N3CCCC3)c2)cc1OC`: 15.8 µM [rising, partial curve]. The same measure for `CC(C)(C)n1nnnc1CN1CCC(NC(=O)NC2CCCCC2)CC1`: 0.01 µM [falling, full curve, poor fit]; for `CCCc1nc(N)c(C#N)c(-c2ccco2)c1CC`: 10 µM [rising, partial curve]; for `O=C(NC1CCS(=O)(=O)C1)c1cccc(S(=O)(=O)N2CCCCC2)c1` (configuration not stated): 10 µM [rising, single point]. The same measure for `COC(=O)c1cc(NCc2c(F)cccc2Cl)ccc1N1CCOCC1`: 12.6 µM [rising, single point]; for `CCC(C)(C(=O)NC1CCCC1)N(C(=O)c1cnccn1)c1c(C)n(C)n(-c2ccccc2)c1=O` (configuration not stated): 12.6 µM [falling, partial curve, poor fit]. With `Cc1c2c(nc3c(C(=O)NC4CC4)cnn13)CCCC2`, the AC50 was 12.6 µM [rising, partial curve]. Then `Cc1ccc(-n2c(CSc3nc(C)cc(C)n3)nnc2SCC(=O)N2CCCC2)cc1`, with 20 µM [rising, single point]; and `OCCNc1nc(C2CC2)nc2c1nnn2Cc1ccccc1Cl`, with 12.6 µM [rising, partial curve]; and `O=C1CCN2C=Nc3cccc4ccc1c2c34`, with 10 µM [rising, partial curve].

Regarding `COc1ccc(CCNC(=O)CCN2C(=O)C(C)Oc3ccc(C)cc32)cc1OC` (configuration not stated), the AC50 is 7.94 µM [rising, partial curve]. As to `O=c1c(-c2cccs2)nc2cnc(N3CCNCC3)nc2n1Cc1cccs1`, the AC50 is 1.58 µM [rising, full curve]. `Cc1cc(NC(=O)c2cc3nc4c(c(C(F)(F)F)n3n2)CCc2ccccc2-4)no1`: the AC50 is 0.501 µM [rising, full curve]. Then `CCCc1cc(=O)n2c(nc3ccccc32)[nH]1`, with 12.6 µM [rising, partial curve]; and `CCOCCCNC(=O)c1c[nH]c2ccc(S(=O)(=O)Nc3cccc(OC)c3)cc2c1=O`, with 0.00316 µM [falling, full curve, poor fit]; and `CCC(C)OC(=O)C1=C(C)NC(=O)NC1c1ccc(F)cc1` (configuration not stated), with 10 µM [rising, single point]. The same measure for `Cc1nc2cnc(Nc3ccccc3)nc2n(C2CC2)c1=O`: 6.31 µM [rising, partial curve]; for `CCOc1ccc(CCNS(=O)(=O)c2cnc[nH]2)cc1OCC`: 5.01 µM [rising, partial curve]; for `Cc1nn(-c2ccc(F)cc2)c2sc(C(=O)N3CCCCCC3)cc12`: 1.26 µM [rising, partial curve]. Then `COCCNC(=O)c1nn(-c2cc(OC)cc(OC)c2)c(=O)c2ccccc12`, with 15.8 µM [rising, partial curve].

As to `CN(C(=O)c1cnccn1)c1nnc(-c2cccnc2)s1`, the AC50 is 0.794 µM [falling, single point]. The same measure for `CC1Cc2ccccc2N1c1ncnc2c1nnn2Cc1ccccc1` (configuration not stated): 5.01 µM [rising, single point]; for `CCOC(=O)c1cnn2c(C(F)(F)F)cc(-c3cn(C)nc3C)nc12`: 10 µM [rising, partial curve]. For `COc1ccc(-n2c(Cc3cccn3C)nnc2SCC(=O)Nc2ccc3c(c2)OCO3)cc1`, the AC50 is 7.94 µM [falling, partial curve].

`CN1CCN(c2ncc3nc(-c4ccccc4)c(=O)n(C)c3n2)CC1`: the AC50 was 12.6 µM [rising, partial curve]. For `CCOC(=O)C1CCN(c2c(NCc3ccc(C(=O)NC(C)CC)cc3)c(=O)c2=O)CC1` (configuration not stated), the AC50 was 12.6 µM [rising, partial curve]. Then `CCOC(=O)Nc1ccc2c(c1)N(C(=O)CCN(C)C)c1ccccc1S2`, with 10 µM [falling, partial curve]; and `COCCCNC(=O)C(F)(F)C(F)(F)C(=O)NCCCOC`, with 5.01 µM [falling, single point]. Then `Cc1nn(-c2ccccc2)c(-c2ccccc2)c1C(=O)O`, with 0.00316 µM [falling, full curve, poor fit]. Then `CCOc1ccc(OCC)c(NC(=O)C2CCN(S(=O)(=O)c3cnc[nH]3)CC2)c1`, with 0.631 µM [falling, full curve, poor fit]. Consider `O=C(NCCCN1CCCC1)c1cccc(N2CCCC2=O)c1`, for which the AC50 was 2.51 µM [falling, partial curve].

As to `CCN(CC)S(=O)(=O)c1ccc2c(c1)nc(CCC(=O)OCc1c(C)noc1C)n2C`, the AC50 is 3.16 µM [rising, partial curve]. In the case of `C=CCSc1nc2ccccc2n1Cc1nnc(-c2cccs2)o1`, the AC50 is 15.8 µM [rising, single point]. With `O=C(CSc1ccc2nnc(-c3ccncc3)n2n1)Nc1ccc2c(c1)OCCO2`, the AC50 was 10 µM [rising, partial curve]. On to `CCCn1c(=O)[nH]c(=O)c2c1nc(-c1ccccc1OC(F)F)n2CCOC`, for which the AC50 was 2.51 µM [rising, full curve]. Then `CCOc1ccccc1N1CCN(C(=O)c2cccc(-c3ccc(O)cc3)c2)CC1`, with 15.8 µM [falling, single point]; and `Cc1cc(C)nc(NC(=O)c2c(-c3c(Cl)cccc3Cl)noc2C)n1`, with 25.1 µM [rising, single point]. As for `CCn1c2ccccc2c2cc(/C=N/n3cnnc3)ccc21`, the AC50 is 10 µM [rising, partial curve].

Consider `CC[C@@H](C)[C@H](NC(=O)OC(C)(C)C)c1nnc(S(=O)(=O)Cc2cc(C)ccc2C)o1`, for which the AC50 is 7.94 µM [falling, partial curve]. The same measure for `COc1ccc(C(=O)CSc2nnc(-c3cnccn3)n2Cc2ccco2)cc1`: 10 µM [rising, partial curve]. For the molecule `CCOC(=O)c1ccccc1NC(=O)c1ccc2c(=O)n3c(nc2c1)CCCCC3`, the AC50 is 0.631 µM [rising, partial curve]. Turning to `CC1Cc2ccccc2N1C(=O)COc1cccc(-n2cnnn2)c1` (configuration not stated), the AC50 is 25.1 µM [rising, single point]. For `C(=N\c1nccs1)/c1c[nH]c2ccccc12`, the AC50 was 0.00398 µM [falling, full curve, poor fit]. The same measure for `N#CCCn1c(=O)c(-c2ccc(F)cc2)nc2cnc(OCc3ccccc3)nc21`: 25.1 µM [rising, single point]. The same measure for `COc1cccc(Nc2ncc3nc(-c4ccc(F)cc4)c(=O)n(CCC#N)c3n2)c1`: 3.98 µM [rising, full curve]; for `COc1ccc(-c2nc3cnc(N4CCOCC4)nc3n(CCC#N)c2=O)cc1`: 3.98 µM [rising, partial curve]; for `COc1ccc(-c2nc3cnc(N(C)C)nc3n(CCc3ccccc3)c2=O)cc1`: 0.398 µM [rising, full curve].

With `COc1cccc(C2=CC(c3cc(OC)ccc3OC)n3nnnc3N2)c1` (configuration not stated), the AC50 was 7.94 µM [rising, partial curve]. The same measure for `Cc1nn2c3cc(N4CCOCC4)ccc3nc2c2ccccc12`: 0.631 µM [rising, full curve]; for `CC(=O)Oc1ccc(N2C(=O)C3C(C2=O)C2(C)C=CC3(C)O2)cc1` (configuration not stated): 3.98 µM [falling, full curve]; for `COc1ccc(-c2nc3cnc(N(C)C)nc3n(CCC#N)c2=O)cc1`: 3.98 µM [rising, partial curve]. The same measure for `Oc1ccc2cccnc2c1`: 0.1 µM [falling, partial curve]; for `CCOc1cc(NS(=O)(=O)CC)c(OCC)cc1NC(=O)c1ccco1`: 12.6 µM [rising, partial curve].
